These are yes or no findings as the source states them, for the method shown. For some of these results: In cells and extracts the contact can be indirect. Some results given as binding are weak or reduced against the parent protein; the word gives no strength.

Protein sequences, listed by entry. Tags and fused reporters are not part of them.
UniProt P06730: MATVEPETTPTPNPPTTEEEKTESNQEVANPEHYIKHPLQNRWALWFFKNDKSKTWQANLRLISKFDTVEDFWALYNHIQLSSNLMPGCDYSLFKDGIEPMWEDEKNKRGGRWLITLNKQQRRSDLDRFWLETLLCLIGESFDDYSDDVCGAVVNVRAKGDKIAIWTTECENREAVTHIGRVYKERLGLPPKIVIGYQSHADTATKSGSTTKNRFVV
UniProt P60842: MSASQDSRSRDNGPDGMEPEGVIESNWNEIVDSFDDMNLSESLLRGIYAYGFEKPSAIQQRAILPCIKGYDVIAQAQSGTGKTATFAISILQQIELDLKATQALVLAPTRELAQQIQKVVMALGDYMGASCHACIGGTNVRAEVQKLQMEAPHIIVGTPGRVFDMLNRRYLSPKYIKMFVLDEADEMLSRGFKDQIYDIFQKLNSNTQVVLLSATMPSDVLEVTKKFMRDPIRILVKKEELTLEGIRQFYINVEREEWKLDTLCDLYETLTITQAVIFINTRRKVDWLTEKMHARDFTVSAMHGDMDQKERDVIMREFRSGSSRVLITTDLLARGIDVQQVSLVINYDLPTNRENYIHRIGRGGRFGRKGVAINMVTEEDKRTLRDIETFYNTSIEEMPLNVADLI

In assay [1] the target is T1, recombinant PHGDH protein (UniProt O43175).
T1 sequence: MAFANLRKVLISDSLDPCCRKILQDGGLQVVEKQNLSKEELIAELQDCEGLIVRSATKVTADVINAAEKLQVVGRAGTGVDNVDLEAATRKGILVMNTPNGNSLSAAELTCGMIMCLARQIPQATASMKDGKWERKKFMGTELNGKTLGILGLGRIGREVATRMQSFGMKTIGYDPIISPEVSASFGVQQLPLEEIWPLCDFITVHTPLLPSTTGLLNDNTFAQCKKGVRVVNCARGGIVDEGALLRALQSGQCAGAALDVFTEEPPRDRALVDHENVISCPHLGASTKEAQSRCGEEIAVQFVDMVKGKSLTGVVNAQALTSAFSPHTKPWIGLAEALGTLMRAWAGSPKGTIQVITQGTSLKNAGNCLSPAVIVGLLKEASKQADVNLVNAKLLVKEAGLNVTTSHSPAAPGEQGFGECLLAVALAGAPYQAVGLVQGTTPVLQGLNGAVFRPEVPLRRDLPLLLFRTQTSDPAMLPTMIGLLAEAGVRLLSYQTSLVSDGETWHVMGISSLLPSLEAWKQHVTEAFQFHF
In words: pull-down; 2 ug recombinant PHGDH held by 2 ug anti-PHGDH antibody and protein G-Sepharose; recombinant eIF4A1, eIF4E or eIF4G1 added one by one; 20 mM Tris pH 7.4, 150 mM sodium chloride, 4 °C; western blot; both purified.

For assay [2], the target named is T2, Phosphoglycerate dehydrogenase (PHGDH), overexpressed in AsPC-1-PHGDH cells (UniProt O43175).
T2 sequence: T1 sequence
Nature of the assay: co-IP; cell lysates (20 mM Tris pH 7.4, 0.5% NP40, 150 mM sodium chloride), antibody 1 ug/ml and protein A-Sepharose, 4 °C overnight, western blot; PANC-1-GFP, PANC-1-shPHGDH, AsPC-1-RFP and AsPC-1-PHGDH cells; baits PHGDH, eIF4A1 or eIF4E.

The target in assay [3] is T3, Phosphoglycerate dehydrogenase (PHGDH), endogenous (human (endogenous in PANC-1 and AsPC-1)) (UniProt O43175).
T3 sequence: T1 sequence
The assay is described as above.

Regarding “recombinant eIF4E protein (from UniProt P06730 1-217)”, in assay [1], the binding entry is “binds”.

“eukaryotic translation initiation factor 4A1 (eIF4A1), endogenous (from UniProt P60842 1-406)”: the binding entry in assay [2] and in assay [3] was “binds” each time.

For “recombinant eIF4A1 protein (from UniProt P60842 1-406)”, in assay [1], the binding result is listed as “binds”.

For the origin of these results see publication PMC6371491.
